Assay [1] deals with SF3B1 (human (endogenous in HeLa)) (UniProt O75533). Description: cross-linking; affinity-purified B complex dimers crosslinked with 350 μM BS3 for 35 min at 18 °C, glycerol gradient, trypsin digest, mass spectrometry, pLink 2.3.9 (CXMS).
Assay [2] deals with SF3B2 (human (endogenous in HeLa)) (UniProt Q13435). Described as above.

The chains behind the UniProt entries cited, without tags or fusion partners.
UniProt O75533: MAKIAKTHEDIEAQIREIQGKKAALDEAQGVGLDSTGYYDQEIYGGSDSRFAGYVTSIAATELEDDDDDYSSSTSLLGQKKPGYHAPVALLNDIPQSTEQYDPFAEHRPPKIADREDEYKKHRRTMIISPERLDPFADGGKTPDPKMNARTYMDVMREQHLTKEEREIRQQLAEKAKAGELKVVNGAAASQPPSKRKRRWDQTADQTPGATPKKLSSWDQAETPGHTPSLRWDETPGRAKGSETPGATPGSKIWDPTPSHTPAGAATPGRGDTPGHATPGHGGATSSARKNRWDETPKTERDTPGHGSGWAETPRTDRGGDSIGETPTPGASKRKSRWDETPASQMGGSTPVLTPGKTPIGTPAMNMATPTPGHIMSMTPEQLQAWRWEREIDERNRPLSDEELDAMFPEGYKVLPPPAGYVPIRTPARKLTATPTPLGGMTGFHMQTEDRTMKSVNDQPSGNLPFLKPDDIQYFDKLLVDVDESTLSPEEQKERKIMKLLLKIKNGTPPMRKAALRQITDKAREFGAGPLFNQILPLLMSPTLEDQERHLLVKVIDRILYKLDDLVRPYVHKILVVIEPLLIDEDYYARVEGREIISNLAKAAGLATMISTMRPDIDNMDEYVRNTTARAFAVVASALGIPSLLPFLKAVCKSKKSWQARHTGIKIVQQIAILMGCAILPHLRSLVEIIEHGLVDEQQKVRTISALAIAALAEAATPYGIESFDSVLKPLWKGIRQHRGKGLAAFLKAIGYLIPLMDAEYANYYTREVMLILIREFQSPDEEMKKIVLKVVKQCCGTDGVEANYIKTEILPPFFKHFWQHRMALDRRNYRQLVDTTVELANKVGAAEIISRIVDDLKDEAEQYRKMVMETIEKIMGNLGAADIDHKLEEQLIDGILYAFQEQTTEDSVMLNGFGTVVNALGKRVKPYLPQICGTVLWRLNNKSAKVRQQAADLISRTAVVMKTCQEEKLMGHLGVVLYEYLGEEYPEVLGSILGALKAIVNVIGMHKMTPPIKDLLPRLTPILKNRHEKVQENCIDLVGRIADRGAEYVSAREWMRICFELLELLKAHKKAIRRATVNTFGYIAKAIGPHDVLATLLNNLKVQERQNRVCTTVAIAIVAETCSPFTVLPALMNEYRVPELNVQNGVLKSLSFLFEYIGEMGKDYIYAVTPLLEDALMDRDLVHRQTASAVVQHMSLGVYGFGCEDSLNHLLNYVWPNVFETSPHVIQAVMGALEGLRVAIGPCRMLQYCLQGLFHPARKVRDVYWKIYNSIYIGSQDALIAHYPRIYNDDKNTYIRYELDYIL
UniProt Q13435: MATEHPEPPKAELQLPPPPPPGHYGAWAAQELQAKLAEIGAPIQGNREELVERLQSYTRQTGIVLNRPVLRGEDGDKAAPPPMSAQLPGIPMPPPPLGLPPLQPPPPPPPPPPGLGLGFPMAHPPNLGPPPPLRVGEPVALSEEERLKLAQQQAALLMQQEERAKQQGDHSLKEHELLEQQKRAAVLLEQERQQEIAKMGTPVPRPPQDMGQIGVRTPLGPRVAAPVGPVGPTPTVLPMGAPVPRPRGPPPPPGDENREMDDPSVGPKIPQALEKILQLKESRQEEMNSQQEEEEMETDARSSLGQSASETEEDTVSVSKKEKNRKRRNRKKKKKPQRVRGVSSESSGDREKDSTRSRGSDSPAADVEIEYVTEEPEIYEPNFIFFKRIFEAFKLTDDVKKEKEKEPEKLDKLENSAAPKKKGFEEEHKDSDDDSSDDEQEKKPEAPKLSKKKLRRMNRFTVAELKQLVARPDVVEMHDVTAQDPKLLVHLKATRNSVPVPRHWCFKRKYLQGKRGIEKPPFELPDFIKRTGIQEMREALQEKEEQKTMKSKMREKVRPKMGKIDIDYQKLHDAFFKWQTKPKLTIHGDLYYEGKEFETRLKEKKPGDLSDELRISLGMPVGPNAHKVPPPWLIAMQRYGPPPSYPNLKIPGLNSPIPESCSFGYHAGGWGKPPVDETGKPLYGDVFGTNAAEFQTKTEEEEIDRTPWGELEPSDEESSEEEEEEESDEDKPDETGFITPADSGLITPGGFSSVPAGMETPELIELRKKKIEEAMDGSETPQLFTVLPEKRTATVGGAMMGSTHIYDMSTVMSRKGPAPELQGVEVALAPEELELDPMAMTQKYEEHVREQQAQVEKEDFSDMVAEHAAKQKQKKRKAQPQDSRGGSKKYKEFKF
UniProt P55081: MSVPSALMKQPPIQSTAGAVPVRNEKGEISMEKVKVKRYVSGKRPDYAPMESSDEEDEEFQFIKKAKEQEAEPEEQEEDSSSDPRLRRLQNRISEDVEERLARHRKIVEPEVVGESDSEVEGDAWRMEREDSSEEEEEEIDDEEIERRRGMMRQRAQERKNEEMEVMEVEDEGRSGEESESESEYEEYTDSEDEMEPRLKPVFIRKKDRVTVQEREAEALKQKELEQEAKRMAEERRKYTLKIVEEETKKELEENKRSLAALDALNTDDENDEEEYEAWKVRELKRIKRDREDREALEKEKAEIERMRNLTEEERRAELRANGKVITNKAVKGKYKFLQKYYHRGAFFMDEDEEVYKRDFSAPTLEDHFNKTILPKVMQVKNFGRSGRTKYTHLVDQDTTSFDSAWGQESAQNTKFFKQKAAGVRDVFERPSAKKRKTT
UniProt Q13123: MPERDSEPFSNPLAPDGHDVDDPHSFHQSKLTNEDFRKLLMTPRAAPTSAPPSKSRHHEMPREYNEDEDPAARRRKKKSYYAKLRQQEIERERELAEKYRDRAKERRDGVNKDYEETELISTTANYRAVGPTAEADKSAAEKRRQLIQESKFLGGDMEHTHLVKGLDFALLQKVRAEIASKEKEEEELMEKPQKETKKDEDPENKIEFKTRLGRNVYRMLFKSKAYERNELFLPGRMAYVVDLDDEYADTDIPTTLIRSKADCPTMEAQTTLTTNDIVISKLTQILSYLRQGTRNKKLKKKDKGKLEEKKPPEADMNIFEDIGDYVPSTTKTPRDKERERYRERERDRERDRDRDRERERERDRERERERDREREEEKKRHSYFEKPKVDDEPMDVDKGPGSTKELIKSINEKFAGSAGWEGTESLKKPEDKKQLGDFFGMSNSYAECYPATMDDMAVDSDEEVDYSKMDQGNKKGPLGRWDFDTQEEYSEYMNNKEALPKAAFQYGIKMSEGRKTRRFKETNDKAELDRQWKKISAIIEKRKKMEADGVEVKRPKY

No constants are given. Whether binding was seen depends on the method and setting. In cells and extracts the contact can be indirect. Some results given as binding are weak or reduced against the parent protein; the word gives no strength.

For MFAP1 (from UniProt P55081 1-439), the binding entry in assay [1] is given as “binds”.

Consider RED (from UniProt Q13123 1-557), for which the binding result in assay [2] and in assay [1] was “binds” throughout.

The record behind these values is article PMC10943123.
